Reference: PMC3146510
No constants are given. Whether binding was seen depends on the method and setting. In cells and extracts the contact can be indirect. Some binding calls cover weakened binding; strength is not graded here.

Sequences of proteins named here, by UniProt entry; tags and fusion partners are left off. A change or cut given only in a name is not applied to a line headed by its entry. Residues count along the entry.
UniProt P05106, residues 27-788: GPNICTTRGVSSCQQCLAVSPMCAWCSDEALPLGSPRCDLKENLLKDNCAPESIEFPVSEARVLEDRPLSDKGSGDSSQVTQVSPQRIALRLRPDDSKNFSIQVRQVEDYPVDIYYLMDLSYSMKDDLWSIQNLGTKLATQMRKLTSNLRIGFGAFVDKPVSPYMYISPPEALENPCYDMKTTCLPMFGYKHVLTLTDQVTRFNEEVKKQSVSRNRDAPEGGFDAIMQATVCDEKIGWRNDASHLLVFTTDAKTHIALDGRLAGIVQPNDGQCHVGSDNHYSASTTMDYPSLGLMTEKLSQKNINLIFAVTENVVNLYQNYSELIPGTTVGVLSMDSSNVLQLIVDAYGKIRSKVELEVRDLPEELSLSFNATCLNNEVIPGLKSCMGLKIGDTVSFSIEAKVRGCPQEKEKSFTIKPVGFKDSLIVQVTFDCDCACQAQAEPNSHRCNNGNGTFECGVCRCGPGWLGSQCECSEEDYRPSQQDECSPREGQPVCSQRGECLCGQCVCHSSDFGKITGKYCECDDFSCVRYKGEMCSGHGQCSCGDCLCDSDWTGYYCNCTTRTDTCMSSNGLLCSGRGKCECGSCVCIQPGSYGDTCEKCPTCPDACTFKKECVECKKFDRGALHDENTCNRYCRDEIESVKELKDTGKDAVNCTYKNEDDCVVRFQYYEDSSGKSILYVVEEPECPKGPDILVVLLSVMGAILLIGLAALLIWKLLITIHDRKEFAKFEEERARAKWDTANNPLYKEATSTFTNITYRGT
UniProt P17301: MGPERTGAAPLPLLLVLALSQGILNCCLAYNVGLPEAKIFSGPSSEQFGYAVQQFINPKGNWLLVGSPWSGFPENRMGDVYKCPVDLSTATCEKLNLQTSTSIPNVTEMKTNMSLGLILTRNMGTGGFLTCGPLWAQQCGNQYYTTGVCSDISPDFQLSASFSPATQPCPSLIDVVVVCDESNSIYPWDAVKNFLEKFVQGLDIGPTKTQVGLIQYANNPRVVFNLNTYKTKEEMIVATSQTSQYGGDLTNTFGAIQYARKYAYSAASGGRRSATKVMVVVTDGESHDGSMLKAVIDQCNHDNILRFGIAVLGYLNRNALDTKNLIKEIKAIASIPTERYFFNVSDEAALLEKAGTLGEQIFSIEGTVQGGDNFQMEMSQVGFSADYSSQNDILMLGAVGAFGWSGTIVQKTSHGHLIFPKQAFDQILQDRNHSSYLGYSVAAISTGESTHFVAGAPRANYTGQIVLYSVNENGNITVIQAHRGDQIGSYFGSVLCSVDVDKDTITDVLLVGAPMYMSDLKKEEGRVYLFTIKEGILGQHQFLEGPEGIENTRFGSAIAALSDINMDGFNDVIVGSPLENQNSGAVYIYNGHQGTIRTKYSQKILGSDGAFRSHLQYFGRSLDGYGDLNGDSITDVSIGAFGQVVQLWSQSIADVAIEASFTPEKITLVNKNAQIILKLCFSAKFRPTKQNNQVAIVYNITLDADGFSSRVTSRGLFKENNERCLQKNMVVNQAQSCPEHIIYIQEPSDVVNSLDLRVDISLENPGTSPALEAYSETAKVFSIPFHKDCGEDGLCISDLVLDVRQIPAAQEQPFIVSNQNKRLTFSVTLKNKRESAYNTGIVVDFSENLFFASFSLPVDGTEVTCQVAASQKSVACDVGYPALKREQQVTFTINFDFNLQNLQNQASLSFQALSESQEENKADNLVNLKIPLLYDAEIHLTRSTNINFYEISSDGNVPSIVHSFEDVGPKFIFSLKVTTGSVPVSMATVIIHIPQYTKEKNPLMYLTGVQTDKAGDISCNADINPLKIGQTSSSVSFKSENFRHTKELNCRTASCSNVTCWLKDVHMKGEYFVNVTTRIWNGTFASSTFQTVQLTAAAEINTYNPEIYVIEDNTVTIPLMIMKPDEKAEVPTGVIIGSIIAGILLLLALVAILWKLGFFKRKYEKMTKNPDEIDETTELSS
UniProt P05556: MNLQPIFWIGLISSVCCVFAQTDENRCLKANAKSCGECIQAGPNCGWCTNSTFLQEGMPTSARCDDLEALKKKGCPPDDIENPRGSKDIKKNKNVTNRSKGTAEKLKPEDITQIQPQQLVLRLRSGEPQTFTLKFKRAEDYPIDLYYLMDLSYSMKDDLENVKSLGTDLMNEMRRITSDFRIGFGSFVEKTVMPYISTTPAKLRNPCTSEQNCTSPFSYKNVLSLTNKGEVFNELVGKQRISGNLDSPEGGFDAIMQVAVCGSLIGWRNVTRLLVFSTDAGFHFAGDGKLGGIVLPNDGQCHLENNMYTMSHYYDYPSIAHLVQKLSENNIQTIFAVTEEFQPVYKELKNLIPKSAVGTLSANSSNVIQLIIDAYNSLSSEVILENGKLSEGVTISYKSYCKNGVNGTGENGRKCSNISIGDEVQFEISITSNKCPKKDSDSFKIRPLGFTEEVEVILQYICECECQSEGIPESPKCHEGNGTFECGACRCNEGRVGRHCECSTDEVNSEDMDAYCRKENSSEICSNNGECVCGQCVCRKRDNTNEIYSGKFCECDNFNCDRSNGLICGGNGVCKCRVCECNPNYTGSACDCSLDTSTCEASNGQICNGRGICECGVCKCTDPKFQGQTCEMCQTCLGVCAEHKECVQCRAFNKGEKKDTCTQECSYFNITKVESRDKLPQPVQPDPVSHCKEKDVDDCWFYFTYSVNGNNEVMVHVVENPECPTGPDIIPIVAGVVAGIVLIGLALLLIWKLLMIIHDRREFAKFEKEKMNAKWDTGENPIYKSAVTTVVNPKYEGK

Key:
[1] = target: β3 integrin subunit (human (endogenous in fetal pancreas)) (UniProt P05106); assay: co-IP; detergent extracts (1% Brij 96, 25 mM Hepes pH 7.5, 150 mM NaCl, 5 mM MgCl2) of human embryonic pancreatic explants; 700 µg protein; immunoprecipitation with rabbit polyclonal anti-α2, -α3, -α5, -β3, anti-Netrin-4 or rabbit IgG at 4°C overnight; Western blotting for Netrin-4
[2] = target: integrin α2β1 (human (endogenous in fetal pancreas)) (UniProt P17301+P05556); assay: as above

B1: Netrin-4 (protein, UniProt Q9HB63 19-628)
chain: GLSGVAGVSSRCEKACNPRMGNLALGRKLWADTTCGQNATELYCFYSENTDLTCRQPKCDKCNAAYPHLAHLPSAMADSSFRFPRTWWQSAEDVHREKIQLDLEAEFYFTHLIVMFKSPRPAAMVLDRSQDFGKTWKPYKYFATNCSATFGLEDDVVKKGAICTSKYSSPFPCTGGEVIFKALSPPYDTENPYSAKVQEQLKITNLRVQLLKRQSCPCQRNDLNEEPQHFTHYAIYDFIVKGSCFCNGHADQCIPVHGFRPVKAPGTFHMVHGKCMCKHNTAGSHCQHCAPLYNDRPWEAADGKTGAPNECRTCKCNGHADTCHFDVNVWEASGNRSGGVCDDCQHNTEGQYCQRCKPGFYRDLRRPFSAPDACKPCSCHPVGSAVLPANSVTFCDPSNGDCPCKPGVAGRRCDRCMVGYWGFGDYGCRPCDCAGSCDPITGDCISSHTDIDWYHEVPDFRPVHNKSEPAWEWEDAQGFSALLHSGKCECKEQTLGNAKAFCGMKYSYVLKIKILSAHDKGTHVEVNVKIKKVLKSTKLKIFRGKRTLYPESWTDRGCTCPILNPGLEYLVAGHEDIRTGKLIVNMKSFVQHWKPSLGRKVMDILKRECK
Q: Which binding [1] does the source give for B1 here?
A: no binding

Q: And the binding [2]?
A: binds
